No constants are given. Whether binding was seen depends on the method and setting. Binding seen in cells or lysates may run through a third protein. Some binding calls cover weakened binding; strength is not graded here. For some assays here: Where a sequence is shown, tags or fusion partners need not be part of it.
Experiments:
[1] = target: T1, Fbxl7 FQ-V5 (Fbxl7^F67AQ68A-V5, synthesized in TNT reticulocyte lysate) (UniProt Q9UJT9); test: co-IP; Fbxl7 proteins synthesized in TNT reticulocyte lysate mixed with MLE12 cell lysates, i.p. by V5 antibody, immunoblotted for V5, Cul1, Skp1
T1 sequence: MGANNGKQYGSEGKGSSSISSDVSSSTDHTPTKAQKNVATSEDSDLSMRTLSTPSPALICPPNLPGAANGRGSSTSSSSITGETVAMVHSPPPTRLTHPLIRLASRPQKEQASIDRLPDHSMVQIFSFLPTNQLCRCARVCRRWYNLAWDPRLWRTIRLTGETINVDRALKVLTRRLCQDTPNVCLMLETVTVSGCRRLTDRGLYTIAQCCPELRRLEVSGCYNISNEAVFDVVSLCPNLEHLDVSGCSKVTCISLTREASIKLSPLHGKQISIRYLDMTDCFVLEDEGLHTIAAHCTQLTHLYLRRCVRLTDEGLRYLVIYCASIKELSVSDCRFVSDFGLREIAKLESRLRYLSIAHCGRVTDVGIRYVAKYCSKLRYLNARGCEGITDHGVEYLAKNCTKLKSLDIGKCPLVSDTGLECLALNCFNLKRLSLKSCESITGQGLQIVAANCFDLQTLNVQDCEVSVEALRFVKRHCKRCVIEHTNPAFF

The chains behind the UniProt entries cited, without tags or fusion partners.
UniProt Q9WTX6: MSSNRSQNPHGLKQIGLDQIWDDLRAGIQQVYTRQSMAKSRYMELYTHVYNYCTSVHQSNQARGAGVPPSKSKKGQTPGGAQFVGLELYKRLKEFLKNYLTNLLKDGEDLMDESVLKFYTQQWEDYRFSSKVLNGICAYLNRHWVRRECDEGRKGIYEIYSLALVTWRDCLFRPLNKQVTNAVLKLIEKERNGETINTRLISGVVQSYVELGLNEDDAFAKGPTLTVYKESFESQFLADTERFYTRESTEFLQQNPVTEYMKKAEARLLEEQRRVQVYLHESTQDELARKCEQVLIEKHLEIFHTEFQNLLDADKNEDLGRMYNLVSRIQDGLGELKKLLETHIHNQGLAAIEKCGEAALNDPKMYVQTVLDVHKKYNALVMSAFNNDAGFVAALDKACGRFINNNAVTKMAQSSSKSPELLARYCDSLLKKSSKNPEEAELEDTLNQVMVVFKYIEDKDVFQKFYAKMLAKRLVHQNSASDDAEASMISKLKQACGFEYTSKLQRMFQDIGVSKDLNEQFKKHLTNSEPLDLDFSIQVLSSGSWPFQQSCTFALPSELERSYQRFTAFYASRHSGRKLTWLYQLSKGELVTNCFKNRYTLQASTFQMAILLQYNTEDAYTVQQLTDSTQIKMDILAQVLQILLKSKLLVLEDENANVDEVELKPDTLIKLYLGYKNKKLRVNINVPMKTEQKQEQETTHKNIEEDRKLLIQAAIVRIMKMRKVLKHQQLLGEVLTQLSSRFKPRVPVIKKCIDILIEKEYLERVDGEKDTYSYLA

[2] = target: T2, Fbxl7 WT-V5 (synthesized in TNT reticulocyte lysate) (UniProt Q9UJT9); test: as above
T2 sequence: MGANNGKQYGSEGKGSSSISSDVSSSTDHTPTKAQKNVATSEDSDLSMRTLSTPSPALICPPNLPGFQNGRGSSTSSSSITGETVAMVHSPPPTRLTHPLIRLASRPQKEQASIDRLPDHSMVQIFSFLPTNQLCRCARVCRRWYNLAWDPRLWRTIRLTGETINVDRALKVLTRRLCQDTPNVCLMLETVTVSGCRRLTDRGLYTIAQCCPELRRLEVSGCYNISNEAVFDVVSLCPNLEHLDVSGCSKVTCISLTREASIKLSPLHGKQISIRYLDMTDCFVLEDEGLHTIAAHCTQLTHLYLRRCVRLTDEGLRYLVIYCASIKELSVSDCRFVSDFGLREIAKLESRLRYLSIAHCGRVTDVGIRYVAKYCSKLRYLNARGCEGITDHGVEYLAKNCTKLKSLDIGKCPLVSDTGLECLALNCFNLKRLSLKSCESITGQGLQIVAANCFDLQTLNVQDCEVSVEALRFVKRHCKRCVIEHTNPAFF

[3] = target: T3, Fbxl18 (co-immunoprecipitation of Supplementary Figure 1A) (UniProt Q96ME1); test: co-IP; co-immunoprecipitation of Fbxl7 with randomly chosen F-box proteins (Supplementary Figure 1A); cells and bait not given
T3 sequence: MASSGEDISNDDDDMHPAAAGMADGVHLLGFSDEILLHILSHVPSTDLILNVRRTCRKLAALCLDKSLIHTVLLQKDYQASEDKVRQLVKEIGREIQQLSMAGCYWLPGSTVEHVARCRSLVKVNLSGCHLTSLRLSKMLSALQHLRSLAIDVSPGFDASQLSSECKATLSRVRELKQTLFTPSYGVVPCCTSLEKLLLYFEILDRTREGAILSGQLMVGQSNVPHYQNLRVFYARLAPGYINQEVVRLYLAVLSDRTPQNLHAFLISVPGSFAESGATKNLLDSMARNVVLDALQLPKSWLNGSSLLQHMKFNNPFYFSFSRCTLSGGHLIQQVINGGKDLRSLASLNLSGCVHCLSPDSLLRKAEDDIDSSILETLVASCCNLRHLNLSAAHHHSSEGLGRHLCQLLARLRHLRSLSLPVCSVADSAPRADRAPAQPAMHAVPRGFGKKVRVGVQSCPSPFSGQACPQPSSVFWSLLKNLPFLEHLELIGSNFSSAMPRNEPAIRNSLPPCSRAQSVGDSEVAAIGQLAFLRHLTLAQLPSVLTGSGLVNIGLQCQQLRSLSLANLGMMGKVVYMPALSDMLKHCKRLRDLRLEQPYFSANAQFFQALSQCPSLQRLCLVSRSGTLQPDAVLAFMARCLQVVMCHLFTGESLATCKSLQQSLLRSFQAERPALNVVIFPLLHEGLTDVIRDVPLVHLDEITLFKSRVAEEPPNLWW

[4] = target: T4, Fbxl18 (endogenous, Hela cells) (human (endogenous in Hela)) (UniProt Q96ME1); test: co-IP; Hela cell lysates i.p. with endogenous Fbxl18 antibody, analysed by Fbxl7 immunoblotting; both endogenous
T4 sequence: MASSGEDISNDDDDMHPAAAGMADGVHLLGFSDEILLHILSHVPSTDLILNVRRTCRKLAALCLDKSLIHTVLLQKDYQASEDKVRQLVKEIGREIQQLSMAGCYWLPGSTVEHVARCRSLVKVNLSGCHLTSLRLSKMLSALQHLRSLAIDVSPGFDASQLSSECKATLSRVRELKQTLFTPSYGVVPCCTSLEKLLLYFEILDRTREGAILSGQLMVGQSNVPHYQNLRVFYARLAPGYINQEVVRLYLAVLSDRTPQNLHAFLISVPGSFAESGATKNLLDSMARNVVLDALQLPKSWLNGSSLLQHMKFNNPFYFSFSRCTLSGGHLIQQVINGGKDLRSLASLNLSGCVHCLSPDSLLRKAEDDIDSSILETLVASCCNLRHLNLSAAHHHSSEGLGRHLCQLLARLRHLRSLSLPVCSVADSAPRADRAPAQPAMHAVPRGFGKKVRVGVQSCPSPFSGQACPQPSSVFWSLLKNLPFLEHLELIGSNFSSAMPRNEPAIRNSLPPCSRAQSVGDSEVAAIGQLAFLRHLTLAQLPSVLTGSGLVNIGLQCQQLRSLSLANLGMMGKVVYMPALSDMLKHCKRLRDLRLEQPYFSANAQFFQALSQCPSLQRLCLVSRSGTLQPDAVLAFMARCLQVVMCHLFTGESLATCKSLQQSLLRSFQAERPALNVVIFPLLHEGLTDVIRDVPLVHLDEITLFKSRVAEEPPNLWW

[5] = target: T4, Fbxl18 (endogenous, Hela cells) (human (endogenous in Hela)); test: co-IP; Hela cell lysates i.p. with Fbxl18 antibody, then mixed with V5-tagged Fbxl7 proteins synthesized in reticulocyte lysate; eluates blotted for Fbxl18 (bait) and V5

For “Cul1 (endogenous, MLE12 cells) (from UniProt Q9WTX6 1-776)”, the binding [1] was “binds” and the binding [2] was “binds”.

B1: Fbxl7 (co-immunoprecipitation of Supplementary Figure 1A) (protein, UniProt Q9UJT9 1-491)
chain: MGANNGKQYGSEGKGSSSISSDVSSSTDHTPTKAQKNVATSEDSDLSMRTLSTPSPALICPPNLPGFQNGRGSSTSSSSITGETVAMVHSPPPTRLTHPLIRLASRPQKEQASIDRLPDHSMVQIFSFLPTNQLCRCARVCRRWYNLAWDPRLWRTIRLTGETINVDRALKVLTRRLCQDTPNVCLMLETVTVSGCRRLTDRGLYTIAQCCPELRRLEVSGCYNISNEAVFDVVSLCPNLEHLDVSGCSKVTCISLTREASIKLSPLHGKQISIRYLDMTDCFVLEDEGLHTIAAHCTQLTHLYLRRCVRLTDEGLRYLVIYCASIKELSVSDCRFVSDFGLREIAKLESRLRYLSIAHCGRVTDVGIRYVAKYCSKLRYLNARGCEGITDHGVEYLAKNCTKLKSLDIGKCPLVSDTGLECLALNCFNLKRLSLKSCESITGQGLQIVAANCFDLQTLNVQDCEVSVEALRFVKRHCKRCVIEHTNPAFF
For B1, the binding [3] was “binds”.

B2: Fbxl7 (endogenous, Hela cells) (protein, UniProt Q9UJT9 1-491)
chain: MGANNGKQYGSEGKGSSSISSDVSSSTDHTPTKAQKNVATSEDSDLSMRTLSTPSPALICPPNLPGFQNGRGSSTSSSSITGETVAMVHSPPPTRLTHPLIRLASRPQKEQASIDRLPDHSMVQIFSFLPTNQLCRCARVCRRWYNLAWDPRLWRTIRLTGETINVDRALKVLTRRLCQDTPNVCLMLETVTVSGCRRLTDRGLYTIAQCCPELRRLEVSGCYNISNEAVFDVVSLCPNLEHLDVSGCSKVTCISLTREASIKLSPLHGKQISIRYLDMTDCFVLEDEGLHTIAAHCTQLTHLYLRRCVRLTDEGLRYLVIYCASIKELSVSDCRFVSDFGLREIAKLESRLRYLSIAHCGRVTDVGIRYVAKYCSKLRYLNARGCEGITDHGVEYLAKNCTKLKSLDIGKCPLVSDTGLECLALNCFNLKRLSLKSCESITGQGLQIVAANCFDLQTLNVQDCEVSVEALRFVKRHCKRCVIEHTNPAFF
In the case of B2, the binding [4] is reported as “binds”.

B3: Fbxl7 WT-V5 (synthesized in TNT reticulocyte lysate) (protein, UniProt Q9UJT9 1-491)
chain: MGANNGKQYGSEGKGSSSISSDVSSSTDHTPTKAQKNVATSEDSDLSMRTLSTPSPALICPPNLPGFQNGRGSSTSSSSITGETVAMVHSPPPTRLTHPLIRLASRPQKEQASIDRLPDHSMVQIFSFLPTNQLCRCARVCRRWYNLAWDPRLWRTIRLTGETINVDRALKVLTRRLCQDTPNVCLMLETVTVSGCRRLTDRGLYTIAQCCPELRRLEVSGCYNISNEAVFDVVSLCPNLEHLDVSGCSKVTCISLTREASIKLSPLHGKQISIRYLDMTDCFVLEDEGLHTIAAHCTQLTHLYLRRCVRLTDEGLRYLVIYCASIKELSVSDCRFVSDFGLREIAKLESRLRYLSIAHCGRVTDVGIRYVAKYCSKLRYLNARGCEGITDHGVEYLAKNCTKLKSLDIGKCPLVSDTGLECLALNCFNLKRLSLKSCESITGQGLQIVAANCFDLQTLNVQDCEVSVEALRFVKRHCKRCVIEHTNPAFF
For B3, the binding [5] was “binds”.

From PMC4669792
